{
  "source": "paper PMC5297980",
  "about": "(Clinical Pharmacology in Drug Development, 2016)",
  "experiment": "Phase 1 atorvastatin-isavuconazole interaction study, plasma PK",
  "data": [
    {"smiles": "CC(C)c1c(C(=O)Nc2ccccc2)c(-c2ccccc2)c(-c2ccc(F)cc2)n1CC[C@@H](O)C[C@@H](O)CC(=O)O", "note": "[Atorvastatin, atorvastatin]", "values": [
      {"measurement": "AUC(0-t)", "setting": "human, plasma, oral, 20 mg", "result": 40.5, "unit": "ng·h/mL"},
      {"measurement": "Tmax", "setting": "human, plasma, oral, 20 mg", "result": 48, "unit": "min"},
      {"measurement": "AUC(0-inf)", "setting": "human, plasma, po, 20 mg", "result": 44.4, "unit": "ng·h/mL"},
      {"measurement": "Mean AUClast higher following coadministration with isavuconazole", "setting": "vs atorvastatin alone", "result": 38, "unit": "%"},
      {"measurement": "Mean Cmax higher following coadministration with isavuconazole", "setting": "vs atorvastatin alone", "result": 3, "unit": "%"}
    ]}
  ]
}
